Reference: the supplement of paper PMC3334620
Whole data set: some 33,000 sequences, median “E-score (-0.5 to 0.5)” near -0.015, cut for the highest 2% near 0.3. This is one part of the list.

What follows are sequences tested against T1, Abf1 (UniProt P14164) (assay: PBM E-score (8-mer binding enrichment) (E-score (-0.5 to 0.5)); higher = stronger / more preferred TF binding). Conditions: protein concentration: 200 nM; construct: GST-full length.
T1 sequence: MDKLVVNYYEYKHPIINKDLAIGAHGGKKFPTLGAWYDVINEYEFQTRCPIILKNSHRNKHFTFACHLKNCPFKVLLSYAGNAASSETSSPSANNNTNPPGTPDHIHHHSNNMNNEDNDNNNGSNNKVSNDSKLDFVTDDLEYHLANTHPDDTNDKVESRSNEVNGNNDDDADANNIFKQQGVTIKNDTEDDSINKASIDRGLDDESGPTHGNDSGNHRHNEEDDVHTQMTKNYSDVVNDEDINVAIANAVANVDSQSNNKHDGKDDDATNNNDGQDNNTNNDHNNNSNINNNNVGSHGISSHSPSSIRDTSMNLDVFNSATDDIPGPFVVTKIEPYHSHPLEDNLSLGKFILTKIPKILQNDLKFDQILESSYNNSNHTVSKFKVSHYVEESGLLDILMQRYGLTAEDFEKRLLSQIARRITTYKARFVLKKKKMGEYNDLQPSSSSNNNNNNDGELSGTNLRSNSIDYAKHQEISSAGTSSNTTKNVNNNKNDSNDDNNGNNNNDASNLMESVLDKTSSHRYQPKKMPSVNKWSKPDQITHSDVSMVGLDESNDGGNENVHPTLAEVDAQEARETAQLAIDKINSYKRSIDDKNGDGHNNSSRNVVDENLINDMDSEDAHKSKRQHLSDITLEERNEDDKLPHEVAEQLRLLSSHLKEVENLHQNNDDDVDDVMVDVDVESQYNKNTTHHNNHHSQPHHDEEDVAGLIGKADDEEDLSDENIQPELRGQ
Method in brief: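 GST-tagged yeast TFs (full-length or DNA-binding domain) were made by PURExpress in vitro transcription/translation and applied at about 100-200 nM to universal all-10-mer Agilent arrays. The arrays were made double-stranded by primer extension, on fresh or once-stripped slides. Bound protein was detected with fluorescent anti-GST, and scans were normalised with masliner. Each ungapped eight-base word, pooled with its reverse complement, received an E-score (modified Wilcoxon-Mann-Whitney statistic) from the Universal PBM Analysis Suite.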

Sequence	PBM E-score
CAACCCAA	-0.117
GGCCACTA	-0.188
TGCCCACA	-0.149
GGTTGGAA	-0.166
ACCAGGCT	-0.203
ACGTTGTC	0.0425
CGAGACAG	0.0375
ATGAGTAG	-0.0168
AAGCACGC	0.0205
CATGAGCG	0.141
GCCCTAGA	-0.077
GACCTATC	-0.00351
AATAAACT	0.0151
GAAAGTTA	0.00502
ATGGTCCG	-0.00383
CCCCCCGA	-0.149
GTCCTGCA	-0.133
ACATTTCG	0.0127
ATGCGGGC	-0.12
CGGTGTTA	-0.213
ACATCAGT	-0.0164
CAAGAAAC	-0.137
ATGCACGC	-0.131
CGTACAAC	0.276
AAAGCAAA	0.118

Sequence	PBM E-score
CACCCATC	-0.0921
GACCGTGA	0.201
AAACAGGT	-0.0656
CAATTAAG	0.134
CTGTGGCC	-0.212
AGCTGTTC	-0.271
AGCTACCA	-0.127
AATCTCCC	-0.156
AAGTTCAA	-0.0539
GAGCCAAA	-0.124
TCAACTCA	-0.00687
AATCAGGT	0.0271
GATTTGCC	0.0759
CTATAAAG	-0.102
AAACCTAG	-0.0352
GCAGCCCA	-0.208
ATATAACC	0.0721
GCCGCACA	-0.0257
CCCTTTGA	-0.125
ATGCAAGG	-0.192
AGTTTGGA	0.0269
AAAATATA	0.177
GCCAGGAC	-0.212
GGAAGAAA	-0.198
AAGAAGGG	-0.205

Sequence	PBM E-score
TAGGGACA	-0.0916
AGCGTGCG	0.046
CCATATAA	0.147
CACAACCC	-0.194
GAAGAGAC	0.00676
AACAGCTA	0.164
CCGCCCTA	-0.167
AATACGAA	0.337
GTAGAAGA	-0.0045
CATTTAGC	0.0637
ATTAGAAA	0.0238
CACCGGGA	-0.182
AGTATACT	-0.253
CACATAAG	-0.1
GCAAAGGC	-0.282
GGAAGACC	-0.183
AACTGATT	-0.2
AGCCAACT	-0.286
GAGCGTAA	0.1
ACGCCGAT	0.0427
AAAGTTGG	-0.0391
GACGAGTC	0.241
CCGTTACG	-0.00175
AGCGTAAC	0.166
CGCTGCGA	0.00403

Sequence	PBM E-score
CTTTCCCA	-0.0958
ACGCTCTA	-0.0747
AAAATGAT	0.387
TAATGATA	0.348
GGTGCCAC	-0.0319
CTCCGTCA	0.11
AGTGGGTC	-0.336
AGCGCAAG	-0.0213
ACGTAACG	-0.034
CTAAGTAA	0.127
CCTGGCCC	-0.175
CTCAATCA	0.121
AGGTTGCC	-0.162
AATCTGCT	0.0219
AGGCACCT	-0.152
GATGTAGA	0.0771
ATTCGGAC	0.113
GGCACCAA	-0.144
AAAGCTCG	-0.0874
GTAAATGA	0.178
GGTCTACA	-0.102
ATCGGTCG	0.0208
ACTAATAT	0.218
AACGCAAC	0.0366
CGGGACAA	0.114

Reformatted in markdown: entries from further up.

| Sequence | PBM E-score |
| --- | --- |
| GGAAGAAA | -0.198 |
| AAGAAGGG | -0.205 |
| TAGGGACA | -0.0916 |
| AGCGTGCG | 0.046 |
| CCATATAA | 0.147 |
| CACAACCC | -0.194 |
| GAAGAGAC | 0.00676 |
| AACAGCTA | 0.164 |
| CCGCCCTA | -0.167 |
| AATACGAA | 0.337 |
| GTAGAAGA | -0.0045 |
| CATTTAGC | 0.0637 |
| ATTAGAAA | 0.0238 |
| CACCGGGA | -0.182 |
| AGTATACT | -0.253 |
| CACATAAG | -0.1 |
| GCAAAGGC | -0.282 |
| GGAAGACC | -0.183 |
| AACTGATT | -0.2 |
| AGCCAACT | -0.286 |
| GAGCGTAA | 0.1 |
| ACGCCGAT | 0.0427 |
| AAAGTTGG | -0.0391 |
| GACGAGTC | 0.241 |
| CCGTTACG | -0.00175 |
| AGCGTAAC | 0.166 |
| CGCTGCGA | 0.00403 |
| CTTTCCCA | -0.0958 |
| ACGCTCTA | -0.0747 |
| AAAATGAT | 0.387 |
| TAATGATA | 0.348 |
| GGTGCCAC | -0.0319 |
| CTCCGTCA | 0.11 |
| AGTGGGTC | -0.336 |
| AGCGCAAG | -0.0213 |
| ACGTAACG | -0.034 |
| CTAAGTAA | 0.127 |
| CCTGGCCC | -0.175 |
| CTCAATCA | 0.121 |
| AGGTTGCC | -0.162 |
| AATCTGCT | 0.0219 |
| AGGCACCT | -0.152 |
| GATGTAGA | 0.0771 |
| ATTCGGAC | 0.113 |
| GGCACCAA | -0.144 |
| AAAGCTCG | -0.0874 |
| GTAAATGA | 0.178 |
| GGTCTACA | -0.102 |
| ATCGGTCG | 0.0208 |
| ACTAATAT | 0.218 |

Further entries

Sequence	PBM E-score
AATTACAT	0.0833
GGTCACTA	0.281
ATTTGAGG	-0.115
GTTGGTGA	0.119
CATATGGC	-0.0586
ACATGAAA	0.0994
CAGATGGC	0.0969
AATACGCT	-0.0754
AATTCAGT	-0.00766
AAGAACCA	-0.132
CAGGGAAC	-0.0439
GGCTCCGA	-0.117
TGCGACCA	-0.0796
AAATGTGC	-0.0895
AATTAAGG	0.071
CATTCGAG	-0.0113
TCTCGGAA	0.0569
CGTGCAGA	0.197
CCGTGTGA	0.301
AGCCAAAG	-0.0262
ATTCGGTA	0.245
ACGCACGG	0.196
GACTCATC	-0.047
CAGGTGCC	-0.142
CAACTTGA	-0.0105

Sequence	PBM E-score
ATGGGGGA	-0.342
ACTGAGCA	0.0487
AAAGAAGT	0.0495
AGATGGAC	0.0909
GTCGATAA	0.0478
TAGGTGCA	-0.15
ACACAGCT	-0.158
CCAACAAA	0.037
TCATCACA	0.125
AACGAATT	0.138
GAAGATTA	0.0292
GAAGAACA	0.156
ACAGGAAG	-0.0692
AAACCTAA	0.127
GTCAAGGA	0.0311
ATAGCTAG	-0.216
CGAGAGGA	0.00468
GCTAACCC	-0.248
CCCAGCAA	-0.0182
AGTTGACC	-0.0281
CCAGAGAC	-0.279
GATTTCTA	0.114
CGACGGTA	0.322
CATTGCAG	0.0247
AATGCGCT	-0.0125

Sequence	PBM E-score
ACGAATGG	0.174
CGCAACCA	-0.0327
CAACGCTA	-0.076
CTTTGGGC	-0.083
GACGGTAC	0.263
ATCACATA	0.276
CACCATGA	0.151
CAGATCTA	-0.174
CGCCCCTC	-0.253
CACGGGTC	-0.0483
GGATTCCA	0.0862
GATGAGCC	-0.0772
ATGATAAC	0.339
GGCTTCCA	-0.233
ACAACGTC	0.0425
AGGTATGA	0.154
ATGCAACG	0.0677
ACTGATCA	0.212
AATTGCTC	-0.24
CGCGAACA	0.00764
ATGACCGC	-0.0493
CTTTCCGA	-0.246
